Test results from patent EP4617284A1 (Shanghai Novamab Biopharmaceuticals Co., Ltd., dated 2025).
These are yes or no findings as the source states them, for the method shown. Some entries that bind do so weakly or less than the wild type.

Amino acid sequences for entries named in this document (tags omitted). A change or cut given only in a name is not applied to a line headed by its entry. Chains listed by the source or under a name are the forms on record and can include a tag or linker.
cynomolgus monkey IL-13 (Q0PW92, form named): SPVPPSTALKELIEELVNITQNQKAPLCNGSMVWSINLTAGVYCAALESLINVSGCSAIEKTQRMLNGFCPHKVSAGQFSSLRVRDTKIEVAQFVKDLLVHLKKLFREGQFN

What was measured:
[1] = target: cynomolgus monkey IL-13 (cynomolgus monkey) (UniProt Q0PW92); assay: ELISA
[2] = target: cynomolgus monkey IL-13 (cynomolgus monkey) (UniProt Q0PW92); assay: ELISA, IL-13 coated on the plate

Binder	binding [1]	binding [2]
MY9217 (bispecific antibody, Trivalent long-acting nanobody: two anti-IL-13 VHH and one anti-HSA VHH in one chain; also called MY9286-GS20-HSA HuNb3-11-GS20-MY9293) EVQLLESGGGLVQPGGSLRLSCAASGFTFSDYTMTWVRQAPGKGLEWVSTVNPDGDSTFYRDSVKGRFTISRDNAKNTLYLQLSSLKTEDTAMYYCTKASLITWPQSPRGQGTLVTVSSGGGGSGGGGSGGGGSGGGGSEVQLQESGGGLVEPGGSLRLSCVASGFTFQHYAMSWVRQAPGKGLEWVSSISMVGGGTSYADSVKGRFTMSRDNAKNTLYLQLNSLKSEDTAMYYCVRGWHPDVPRPLGQGTLVTVSSGGGGSGGGGSGGGGSGGGGSEVQLLESGGGLVQPGESLRLSCEVSGHTHTNYCMGWFRQAPGKGLEGVAAIDTDGSTTYADSVKGRFTISKDNAKNTLYLQMNSLKPEDTAMYYCMAEDFRDEYAPEPRLSSGGYCSIGYGMDYWGKGTLVTVSSA	binds	binds
MY9219 (bispecific antibody, Trivalent long-acting nanobody: two anti-IL-13 VHH and one anti-HSA VHH in one chain; also called HSA HuNb3-11-MY9286-GS20-MY9293-GS20) EVQLQESGGGLVEPGGSLRLSCVASGFTFQHYAMSWVRQAPGKGLEWVSSISMVGGGTSYADSVKGRFTMSRDNAKNTLYLQLNSLKSEDTAMYYCVRGWHPDVPRPLGQGTLVTVSSGGGGSGGGGSGGGGSGGGGSEVQLLESGGGLVQPGGSLRLSCAASGFTFSDYTMTWVRQAPGKGLEWVSTVNPDGDSTFYRDSVKGRFTISRDNAKNTLYLQLSSLKTEDTAMYYCTKASLITWPQSPRGQGTLVTVSSGGGGSGGGGSGGGGSGGGGSEVQLLESGGGLVQPGESLRLSCEVSGHTHTNYCMGWFRQAPGKGLEGVAAIDTDGSTTYADSVKGRFTISKDNAKNTLYLQMNSLKPEDTAMYYCMAEDFRDEYAPEPRLSSGGYCSIGYGMDYWGKGTLVTVSSA	binds	binds
